# Measured values published in the supplement of paper PMC4840960.
# ± gives the standard deviation of the averaged measurements. Some of the results follow. Plates or batches differ in their baseline, so values are only roughly comparable.
# Tested on: E18 rat cortical neuron-glia co-culture
# Assay: total nuclei (DAPI) / Olig2+ nuclei (ratio); higher = more depletion of OPC/OL lineage cells
# Settings: treatment time: 8 days (DIV5-DIV13)
SMILES,total nuclei (1 µM),total nuclei (5 µM)
CO[C@H]1/C=C/O[C@@]2(C)Oc3c(C)c(O)c4c(O)c(c(/C=N/N5CCN(C)CC5)c(O)c4c3C2=O)NC(=O)/C(C)=C\C=C\[C@H](C)[C@H](O)[C@@H](C)[C@@H](O)[C@@H](C)[C@H](OC(C)=O)[C@@H]1C [Rifampicin],6.42,5.5
Clc1ccccc1CN1CCc2sccc2C1 [Ticlopidine],2.6,7.1
CCN1CCCC1CNC(=O)c1cc(S(=O)(=O)CC)ccc1OC (stereo not drawn) [Sultopride],4.63,4.2
COc1ccc(CC(C)NCC(O)c2ccc(O)c(NC=O)c2)cc1 (stereo not drawn) [Formoterol],2.62,2.5
CN(C/C=C/C#CC(C)(C)C)Cc1cccc2ccccc12 [Terbinafine],2.53,> 40
O=C(O)c1cc(-c2ccc(F)cc2F)ccc1O [Diflunisal],3.73,4.2
O=C1c2c(O)cc(O)cc2O[C@H](c2ccc(O)c(O)c2)[C@H]1O [Distylin],4.67,4.2
COC(=O)Nc1nc2cc(C(=O)c3ccc(F)cc3)ccc2[nH]1 [Flubendazole],30.9,> 40
OCc1cc(C(O)CNCCCCCCOCCCCc2ccccc2)ccc1O (stereo not drawn) [Salmeterol],4.08,14.9
OC(Cn1cncn1)(Cn1cncn1)c1ccc(F)cc1F [Fluconazole],2.37,2.3
CC12CC3CC(C)(C1)CC(N)(C3)C2 [Memantine],3.1 ± 0.18,2.75 ± 0.071
CC(=O)OCC[N+](C)(C)C [Acetylcholine],4.25,4.1
CC(=O)[C@H]1CC[C@H]2[C@@H]3C[C@H](C)C4=CC(=O)CC[C@]4(C)[C@H]3[C@@H](O)C[C@]12C [Medrysone],2.83,2.8
CC(C(=O)O)c1ccc(-c2ccccc2)c(F)c1 (stereo not drawn) [Flurbiprofen],4.01 ± 1.7,5 ± 0.71
CCOC(=O)[C@H](CCc1ccccc1)N[C@@H](C)C(=O)N1Cc2ccccc2C[C@H]1C(=O)O [Quinapril],4.13,4
CC[C@@]1(O)C(=O)OCc2c1cc1n(c2=O)Cc2cc3c(CN(C)C)c(O)ccc3nc2-1 [Topotecan],> 40,> 40
Cc1c(O)cccc1C(=O)N[C@@H](CSc1ccccc1)[C@H](O)CN1C[C@H]2CCCC[C@H]2C[C@H]1C(=O)NC(C)(C)C [Nelfinavir],4.3,28.1
COc1ccc(C(=O)NCc2ccc(OCCN(C)C)cc2)cc1OC [Itopride],2.77,2.7
CCCC1O[C@@H]2C[C@H]3[C@@H]4CCC5=CC(=O)C=C[C@]5(C)[C@H]4[C@@H](O)C[C@]3(C)[C@]2(C(=O)CO)O1 (stereo partly drawn) [Budesonide],2.71,2.6

# Laid out differently: 2 of the compounds above
SMILES | total nuclei (1 µM) | total nuclei (5 µM)
O=C1c2c(O)cc(O)cc2O[C@H](c2ccc(O)c(O)c2)[C@H]1O [Distylin] | 4.67 | 4.2
CC(=O)[C@H]1CC[C@H]2[C@@H]3C[C@H](C)C4=CC(=O)CC[C@]4(C)[C@H]3[C@@H](O)C[C@]12C [Medrysone] | 2.83 | 2.8
